Measured data: PubChem BioAssay AID743121 (NCATS, 2013)
Screen: 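Genes whose silencing strengthens cell killing by camptothecin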 (primary screen). Cells: MDA-MB-231 cells, a human breast cancer line. Reagents: single siRNA against human genes, 20 nM siRNA (0.8 pmol per well). Time to read-out: 120 h (drug added 48 h after transfection, read 72 h later). Treatment: camptothecin 20 nM (about EC30) for 72 h; vehicle 0.1% DMSO in parallel plates. Measurement: 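CellTiter-Glo ATP signal, scaled to control siRNA as percent viability; sensitisation given as log2 of untreated divided by camptothecin-treated viability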. Direction: log2 vehicle/camptothecin viability: higher = stronger sensitisation to camptothecin; viability with camptothecin: higher = more viable cells. Active means: 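Active genes have an RSA gene-level p-value below 0.001, computed from the ratios of their separate siRNAs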.
Here is a random part of about 26,000 reagents tested. Over the whole deposit, 167 (0.63%) are marked active. 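Calls are per gene from RSA p-values that are not deposited; an individual active-marked siRNA can sensitise only weakly.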 Reagents against one gene are numbered here. Not all columns of the deposit are shown.

gene | reagent | log2 vehicle/camptothecin viability | viability with camptothecin (% of control) | outcome
ITPA (inosine triphosphatase) | 1 | -0.176 | 60 | inactive
ITPA (inosine triphosphatase) | 2 | -0.195 | 86.5 | inactive
ITPA (inosine triphosphatase) | 3 | -0.275 | 98 | inactive
ITPA (inosine triphosphatase) | 4 | -0.509 | 44.1 | inactive
STX7 (syntaxin 7) | 1 | -0.0761 | 117 | inactive
STX7 (syntaxin 7) | 2 | -0.113 | 97.6 | inactive
STX7 (syntaxin 7) | 3 | -0.206 | 22 | inactive
STX7 (syntaxin 7) | 4 | -0.441 | 43.8 | inactive
PJA2 (praja ring finger ubiquitin ligase 2) | 1 | 0.368 | 71 | inactive
PJA2 (praja ring finger ubiquitin ligase 2) | 2 | -0.171 | 93.2 | inactive
PJA2 (praja ring finger ubiquitin ligase 2) | 3 | -0.275 | 80.8 | inactive
PJA2 (praja ring finger ubiquitin ligase 2) | 4 | -0.0747 | 89.6 | inactive
CD68 (CD68 molecule) | 1 | 0.159 | 67.4 | inactive
CD68 (CD68 molecule) | 2 | -0.0722 | 65.5 | inactive
CD68 (CD68 molecule) | 3 | -0.0255 | 86.7 | inactive
CD68 (CD68 molecule) | 4 | 1.72 | 13.2 | inactive
PSEN1 (presenilin 1) | 1 | 0.1 | 101 | inactive
PSEN1 (presenilin 1) | 2 | -0.305 | 61.1 | inactive
PSEN1 (presenilin 1) | 3 | 0.0291 | 105 | inactive
PSEN1 (presenilin 1) | 4 | -0.318 | 73.7 | inactive
RYBP (RING1 and YY1 binding protein) | 1 | -0.0528 | 34.5 | inactive
RYBP (RING1 and YY1 binding protein) | 2 | 0.201 | 65.9 | inactive
RYBP (RING1 and YY1 binding protein) | 3 | -0.0379 | 99.5 | inactive
RYBP (RING1 and YY1 binding protein) | 4 | -0.0711 | 66.6 | inactive
DGKK (diacylglycerol kinase kappa) | 1 | -0.394 | 124 | inactive
DGKK (diacylglycerol kinase kappa) | 2 | -0.193 | 106 | inactive
DGKK (diacylglycerol kinase kappa) | 3 | -0.114 | 80.9 | inactive
DGKK (diacylglycerol kinase kappa) | 4 | -0.155 | 108 | inactive
DGKK (diacylglycerol kinase kappa) | 5 | 0.0475 | 54.3 | inactive
DGKK (diacylglycerol kinase kappa) | 6 | -0.155 | 81.4 | inactive
DGKK (diacylglycerol kinase kappa) | 7 | -0.0665 | 65.4 | inactive
CD302 (CD302 molecule) | 1 | -0.46 | 74.4 | inactive
CD302 (CD302 molecule) | 2 | -0.429 | 95.5 | inactive
CD302 (CD302 molecule) | 3 | -0.449 | 61 | inactive
CD302 (CD302 molecule) | 4 | 0.0359 | 88.3 | inactive
MBD1 (methyl-CpG binding domain protein 1) | 1 | 0.237 | 47.5 | inactive
MBD1 (methyl-CpG binding domain protein 1) | 2 | 0.0969 | 91.9 | inactive
MBD1 (methyl-CpG binding domain protein 1) | 3 | 0.0496 | 108 | inactive
MBD1 (methyl-CpG binding domain protein 1) | 4 | -0.218 | 79.6 | inactive
CSF3 (colony stimulating factor 3) | 1 | -0.104 | 79.4 | inactive
CSF3 (colony stimulating factor 3) | 2 | -0.128 | 85.7 | inactive
CSF3 (colony stimulating factor 3) | 3 | -0.142 | 66.6 | inactive
CSF3 (colony stimulating factor 3) | 4 | -0.226 | 80.7 | inactive
LTA (lymphotoxin alpha) | 1 | -0.031 | 101 | inactive
LTA (lymphotoxin alpha) | 2 | 0.0972 | 81.6 | inactive
LTA (lymphotoxin alpha) | 3 | 0.187 | 44.6 | inactive
DBF4 (DBF4-CDC7 kinase regulatory subunit) | 1 | 0.103 | 91 | inactive
DBF4 (DBF4-CDC7 kinase regulatory subunit) | 2 | 0.0349 | 80.3 | inactive
DBF4 (DBF4-CDC7 kinase regulatory subunit) | 3 | -0.0726 | 107 | inactive
DBF4 (DBF4-CDC7 kinase regulatory subunit) | 4 | -0.179 | 99.3 | inactive
PHF7 (PHD finger protein 7) | 1 | -0.167 | 84.1 | inactive
PHF7 (PHD finger protein 7) | 2 | -0.668 | 88 | inactive
PHF7 (PHD finger protein 7) | 3 | 0.057 | 109 | inactive
PHF7 (PHD finger protein 7) | 4 | 0.405 | 69.2 | inactive
TNFSF12 (TNF superfamily member 12) | 1 | -0.155 | 92.4 | inactive
TNFSF12 (TNF superfamily member 12) | 2 | -0.168 | 50.5 | inactive
TNFSF12 (TNF superfamily member 12) | 3 | 0.193 | 75.1 | inactive
TNFSF12 (TNF superfamily member 12) | 4 | -0.5 | 87.6 | inactive
RYR1 (ryanodine receptor 1) | 1 | -0.399 | 90.1 | inactive
RYR1 (ryanodine receptor 1) | 2 | -0.0993 | 88 | inactive
RYR1 (ryanodine receptor 1) | 3 | 0.0585 | 80.1 | inactive
RYR1 (ryanodine receptor 1) | 4 | 0.0244 | 110 | inactive
ADRA2C (adrenoceptor alpha 2C) | 1 | 0.763 | 26.3 | inactive
ADRA2C (adrenoceptor alpha 2C) | 2 | -0.107 | 105 | inactive
ADRA2C (adrenoceptor alpha 2C) | 3 | -0.279 | 124 | inactive
ADRA2C (adrenoceptor alpha 2C) | 4 | -0.0809 | 86.9 | inactive
PHF21A (PHD finger protein 21A) | 1 | -0.445 | 93.9 | inactive
PHF21A (PHD finger protein 21A) | 2 | -0.199 | 113 | inactive
PHF21A (PHD finger protein 21A) | 3 | -0.0878 | 36.8 | inactive
PHF21A (PHD finger protein 21A) | 4 | -0.511 | 67.5 | inactive
RRAS2 (RAS related 2) | 1 | -0.261 | 87 | inactive
RRAS2 (RAS related 2) | 2 | -0.138 | 84.1 | inactive
RRAS2 (RAS related 2) | 3 | 0.127 | 75.5 | inactive
USP20 (ubiquitin specific peptidase 20) | 1 | -0.431 | 103 | inactive
USP20 (ubiquitin specific peptidase 20) | 2 | 0.155 | 51.3 | inactive
USP20 (ubiquitin specific peptidase 20) | 3 | 0.18 | 92.6 | inactive
USP20 (ubiquitin specific peptidase 20) | 4 | -0.187 | 66.3 | inactive
STX5 (syntaxin 5) | 1 | 0.419 | 63.3 | inactive
STX5 (syntaxin 5) | 2 | 0.413 | 55.5 | inactive
STX5 (syntaxin 5) | 3 | -0.239 | 69.9 | inactive
STX5 (syntaxin 5) | 4 | -0.211 | 69.7 | inactive
SCARB1 (scavenger receptor class B member 1) | 1 | -0.198 | 131 | inactive
SCARB1 (scavenger receptor class B member 1) | 2 | -0.31 | 101 | inactive
SCARB1 (scavenger receptor class B member 1) | 3 | -0.138 | 68.1 | inactive
SCARB1 (scavenger receptor class B member 1) | 4 | -0.314 | 133 | inactive
SCARB1 (scavenger receptor class B member 1) | 5 | -1.11 | 56.1 | inactive
SCARB1 (scavenger receptor class B member 1) | 6 | 0.158 | 69.1 | inactive
SCARB1 (scavenger receptor class B member 1) | 7 | -0.65 | 23.9 | inactive
SCARB1 (scavenger receptor class B member 1) | 8 | -0.452 | 77.3 | inactive

6 entries already listed, ordered by “viability with camptothecin (% of control)”, ascending:
gene | reagent | log2 vehicle/camptothecin viability | viability with camptothecin (% of control) | outcome
USP20 (ubiquitin specific peptidase 20) | 2 | 0.155 | 51.3 | inactive
PHF21A (PHD finger protein 21A) | 4 | -0.511 | 67.5 | inactive
RRAS2 (RAS related 2) | 3 | 0.127 | 75.5 | inactive
RRAS2 (RAS related 2) | 2 | -0.138 | 84.1 | inactive
RRAS2 (RAS related 2) | 1 | -0.261 | 87 | inactive
USP20 (ubiquitin specific peptidase 20) | 1 | -0.431 | 103 | inactive
